Experimental findings from publication PMC11408250 are described below.

These are yes or no findings as the source states them, for the method shown. Binding seen in cells or lysates may run through a third protein. Here binding means that the protein was enriched with, or labelled near, the bait; the list need not be complete. Tags and fused reporters may be left off the sequences shown.

T1: PCDH19-HA-FLAG (Protocadherin 19, endogenous in Pcdh19-HA-FLAG mice) (mouse (endogenous in mouse brain)) (UniProt Q80TF3)
T1 sequence: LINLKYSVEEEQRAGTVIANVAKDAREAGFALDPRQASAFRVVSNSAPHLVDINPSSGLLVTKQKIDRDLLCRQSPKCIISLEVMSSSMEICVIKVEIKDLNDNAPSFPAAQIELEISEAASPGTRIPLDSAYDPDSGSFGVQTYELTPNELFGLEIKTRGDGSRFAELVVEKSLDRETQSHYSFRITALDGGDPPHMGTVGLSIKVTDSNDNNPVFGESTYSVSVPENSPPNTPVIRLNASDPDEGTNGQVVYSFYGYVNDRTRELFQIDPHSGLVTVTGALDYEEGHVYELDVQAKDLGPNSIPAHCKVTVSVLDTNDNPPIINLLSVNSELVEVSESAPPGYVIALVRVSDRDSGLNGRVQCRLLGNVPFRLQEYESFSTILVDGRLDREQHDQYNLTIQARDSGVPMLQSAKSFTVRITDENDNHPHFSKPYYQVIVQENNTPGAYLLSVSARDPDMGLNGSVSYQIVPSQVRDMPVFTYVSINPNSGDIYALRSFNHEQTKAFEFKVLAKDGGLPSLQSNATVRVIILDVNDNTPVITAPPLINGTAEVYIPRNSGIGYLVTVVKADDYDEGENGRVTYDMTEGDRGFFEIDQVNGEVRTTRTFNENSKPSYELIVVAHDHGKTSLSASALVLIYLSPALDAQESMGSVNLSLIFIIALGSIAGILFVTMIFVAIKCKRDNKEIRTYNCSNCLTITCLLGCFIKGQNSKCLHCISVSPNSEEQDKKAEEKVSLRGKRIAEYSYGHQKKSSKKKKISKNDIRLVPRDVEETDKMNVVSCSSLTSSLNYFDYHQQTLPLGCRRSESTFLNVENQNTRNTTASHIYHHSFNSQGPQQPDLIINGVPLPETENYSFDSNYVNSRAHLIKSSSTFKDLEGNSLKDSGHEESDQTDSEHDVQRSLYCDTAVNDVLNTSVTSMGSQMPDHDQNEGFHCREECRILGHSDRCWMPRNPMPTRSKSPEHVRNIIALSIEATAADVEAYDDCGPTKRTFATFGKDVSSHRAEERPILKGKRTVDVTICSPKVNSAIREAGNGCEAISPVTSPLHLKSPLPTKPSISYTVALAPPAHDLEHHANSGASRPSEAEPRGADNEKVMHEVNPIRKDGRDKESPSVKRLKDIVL

B1: Protein phosphatase 1B (protein, UniProt P36993 1-390)
chain: MGAFLDKPKTEKHNAHGAGNGLRYGLSSMQGWRVEMEDAHTAVVGIPHGLDNWSFFAVYDGHAGSRVANYCSTHLLEHITTNEDFRAADKSGSALEPSVESVKTGIRTGFLKIDEYMRNFSDLRNGMDRSGSTAVGVMVSPTHMYFINCGDSRAVLCRNGQVCFSTQDHKPCNPVEKERIQNAGGSVMIQRVNGSLAVSRALGDYDYKCVDGKGPTEQLVSPEPEVYEIVRAEEDEFVVLACDGIWDVMSNEELCEFVKSRLEVSDDLENVCNWVVDTCLHKGSRDNMSVVLVCFSNAPKVSEEAVKRDSELDKHLESRVEEIMQKSGEEGMPDLAHVMRILSAENIPNLPPGGGLAGKRHVIEAVYSRLNPHKDNDGGAGDLEDSLVAL
B2: Cytoplasmic Linker Associated Protein 2 (protein, UniProt Q8BRT1 1-1286)
chain: MRRLICKRICDYKSFDDEESVDGNRPSSAASAFKVPAPKTPGNPVSSARKPGSAGGPKVGGPSKEGGAGAVDEDDFIKAFTDVPSVQIYSSRELEETLNKIREILSDDKHDWDQRANALKKIRSLLVAGAAQYDCFFQHLRLLDGALKLSAKDLRSQVVREACITVAHLSTVLGNKFDHGAEAIVPTLFNLVPNSAKVMATSGCAAIRFIIRHTHVPRLIPLITSNCTSKSVPVRRRSFEFLDLLLQEWQTHSLERHAAVLVETIKKGIHDADAEARVEARKTYMGLRNHFPGEAETLYNSLEPSYQKSLQTYLKSSGSVASLPQSDRSSSSSQESLNRPFSSKWSTANPSTVAGRVSVGGSKANPLPGSLQRSRSDIDVNAAAGAKAHHAAGQAVRSGRLGAGALNPGSYASLEDTSDKMDGTASDDGRVRAKLSTPLVAVGNAKTDSRGRSRTKMVSQSQPGSRSGSPGRVLTTTALSTVSSGAQRVLVNSASAQKRSKIPRSQGCSREASPSRLSVARSSRIPRPSVSQGCSREASRESSRDTSPVRSFQPLGPGYGISQSSRLSSSVSAMRVLNTGSDVEEAVADALLLGDIRTKKKPARRRYESYGMHSDDDANSDASSACSERSYSSRNGSIPTYMRQTEDVAEVLNRCASSNWSERKEGLLGLQNLLKNQRTLSRIELKRLCEIFTRMFADPHGKVFSMFLETLVDFIQVHKDDLQDWLFVLLTQLLKKMGADLLGSVQAKVQKALDITRESFPNDLQFNILMRFTVDQTQTPSLKVKVAILKYIETLAKQMDPRDFTNSSETRLAVSRVITWTTEPKSSDVRKAAQSVLISLFELNTPEFTMLLGALPKTFQDGATKLLHNHLRNTGNGTQSSMGSPLTRPTPRSPANWSSPLTSPTNTSQNTLSPSAFDYDTENMNSEDIYSSLRGVTEAIQNFSFRSQEDMSEPVRRDPKKEDGDTICSGPGMSDPRAGGDAADGSQPALDNKASLLHSMPLHSSPRSRDYNPYNYSDSISPFNKSALKEAMFDDDADQFPDDLSLDHSDLVAELLKELSNHNERIEERKIALYELMKLTQEESFSVWDEHFKTILLLLLETLGDKEPTIRALALKVLKEILRHQPARFKNYAELTVMKTLEAHKDPHKEVVRSAEEAASVLATSISPEQCIKVLCPIIQTADYPINLAAIKMQTKVIERVSKETLNMLLPEIMPGLIQGYDNSESSVRKACVFCLVAVHAVIGDELKPHLSQLTGSKMKLLNLYIKRAQTGSAGADPTADVSGQS
B3: Protein Phosphatase 1 Regulatory Subunit 12B (protein, UniProt Q8BG95 1-976)
chain: MAELEHLGGKRAESARARRAEQLRRWRGSLTEQEPAERQGAGRQLQTRRGSPRVRFEDGAVFLAACSSGDTDEVKKLLARGADINTVNVDGLTALHQACIDENLDMVKFLVENRANVNQQDNEGWTPLHAAASCGYLNIAEYFISHGASVGIVNSEGEVPSDLAEEPAMKDLLLEQVKKQGVDLEQSRKEEEQQMLQDARQWLNSGRIEDVRQARSGATALHVAAAKGYSEVLRLLIQAGYELNVQDHDGWTPLHAAAHWGVKEACSILAEALCDMDIRNKLGQTPFDVADEGLVEHLEMLQKKQDVLRSEKETRNKLIESDLNSKFQSGLFKNKEKMLYEEEIPKSQDTEEENKESSSSSSEEEEGEDEVSESETEKEADKKPEATVNHSNSEIKSRIMEQIPAPAQNTFSASSARRLSSLFNKAEEPKDESPSSWRLGLRKTGSHNMLSEVANSREALRDRGSSIYRSSSSPRISALLDDKDKERENKSYFSMLVPRRLSSTSDIEEKENRESAVNLVRSGSHTRQLWRDEAKGSETPQTIAPSTYTSTYLKRTPYKSQADSTAEKTADSVSSSTPLCVITNRPAPSTANGVPAATVFSSAGTDPSVEAREKRRSYLTPVRDEEAESLRKARSRQARQTRRSTQGVTLTDLQEAEKTFSRSRAERQAQEQPGEKLEDPGGLEGSTKKQEPSAAPTKGAGEGRSLEEEPIYHRLRYPTQPDKPTTPVSPSASRPSLYTGSHLLRTSRASGPDSENSETSTHATAAKEMDTSEKGEADLDDQSSNRLSVRERRRAKDRRRGTGINFWTNDEDETDVSEEVKEALHERLSRLESGGTNPTSSDSYSDRASARARREAREARLASLTSRVEEDSNRDYKKLYESALTENQKLKTKLQEAQLELADIKAKLEKMAQQKQEKTSDRSSVLEVEKRERRALERKMSEMEEEMKVLTELKSDNQRLKDENGALIRVISKLSK
B4: Pre-mRNA Processing Factor 31 (protein, UniProt Q8CCF0 1-499)
chain: MSLADELLADLEEAAEEEEGGSYGEEEEEPAIEDVQEETQLDLSGDSVKSIAKLWDSKMFAEIMMKIEEYISKQANVSEVMGPVEAAPEYRVIVDANNLTVEIENELNIIHKFIRDKYSKRFPELESLVPNALDYIRTVKELGNSLDKCKNNENLQQILTNATIMVVSVTASTTQGQQLSDEELERLEEACDMALELNASKHRIYEYVESRMSFIAPNLSIIIGASTAAKIMGVAGGLTNLSKMPACNIMLLGAQRKTLSGFSSTSVLPHTGYIYHSDIVQSLPPDLRRKAARLVAAKCTLAARVDSFHESTEGKVGYELKDEIERKFDKWQEPPPVKQVKPLPAPLDGQRKKRGGRRYRKMKERLGLTEIRKQANRMSFGEIEEDAYQEDLGFSLGHLGKSGSGRVRQTQVNEATKARISKTLQRTLQKQSVVYGGKSTIRDRSSGTASSVAFTPLQGLEIVNPQAAEKKVAEANQKYFSSMAEFLKVKGEKSGTMST
B5: SCY1 Like Protein 2 (protein, UniProt Q8CFE4 1-930)
chain: MESMLNKLKSTVTKVTADVTSAVMGNPVTREFDVGRHIASGGNGLAWKIFNGTKKSTKQEVAVFVFDKKLIDKYQKFEKDQIIDSLKRGVQQLTRLRHPRLLTVQHPLEESRDCLAFCTEPVFASLANVLGNWENLPSSISPDIKDYKLYDVETKYGLLQVSEGLSFLHSSVKMVHGNVTPENVILNKSGAWKIMGFDFCVSSSNPSEQEPKFPCKEWDPNLPSLCLPNPEYLAPEYILSVSCETASDMYSLGAVMYAVFNQGRPIFEVNKQDIYKSFSRQLDQLSRLGSSSLTSIPEEVREHVKLLLNVTPTVRPDADQMTKIPFFDDVGAVTLQYFDTLFQRDNLQKSQFFKGLPKVLPKLPKRVIVQRILPCLTSEFVNPDMVPFVLPNVLLIAEECTKEEYIKLILPELGPVFKQQEPIQILLIFLQKMDLLLTKTPPDEIKNSVLPMVYRALEAPSIQIQELCLNIIPTFANLIDYPSMKNALIPRIKNACLQTSSLAVRVNSLVCLGKILEYLDKWFVLDDILPFLQQIPSKEPAVLMGILGIYKCTFTHKKLGITKEQLAGKVLPHLIPLSIENNLNLNQFSSFIAVIKEMLSRLESEHRTKLEQLHVMQEQQRSLDIGNQMSTSEETKVAHSGSQQIDKVFNNIGADLLSGSESENREDGMQGKQKRGSLTLEEKQKLAKEQEQAQKLKSQQPLKPQVHTPIAPIKQTKDLTDTLMENMSSLTSLSVSTPKISASSTFTPVPSTGLGMMFSTPIDNTKRNLTNGLNANMGFQTSGFSMPVNPNQNFFSGTGTAGVTTMSLGAPPTMSNFSPLTIPPASVKQPQQRPTDMSALNNLFGPQKPKVSMNQLSQQKPNQWLNQFAPPQGSPVMGSAAMGTQGNVMGQAAFGMQGNPFFNPQNFAQPPPTTMTSSSSASNDLKDLFG

One test deals with T1, PCDH19-HA-FLAG (Protocadherin 19, endogenous in Pcdh19-HA-FLAG mice) (mouse (endogenous in mouse brain)). Description: affinity purification with mass spectrometry; Experiment 2, postnatal: PCDH19-HA-FLAG precipitated with anti-FLAG M2 affinity gel from P6-7 mouse cortex and hippocampus lysate, control mouse IgG affinity gel; IP Buffer, overnight 4 °C; LC-MS/MS.
B1: the binding result is reported as “binds”.

On to B2, for which the binding result is on record as “binds”.

A further test shares this target. Description: affinity purification with mass spectrometry; Experiment 2, embryonic: PCDH19-HA-FLAG precipitated with anti-FLAG M2 affinity gel from E17.5-18.5 mouse cortex and hippocampus lysate, control mouse IgG affinity gel; IP Buffer, overnight 4 °C; LC-MS/MS.
Take B3: the binding result is recorded as “binds”.

Regarding B1, the binding entry was “binds”.

In the case of B2, the binding entry was “binds”.

Take B4: the binding entry is “binds”.

Consider B5, for which the binding result was “binds”.
